Measurements published in PubChem BioAssay AID2685 (National Center for Advancing Translational Sciences (NCATS), 2010).
Out of some 320,000 compounds screened, about 2,100 (0.66%) were called active. This list was built around the results that the source calls inconclusive (neither active nor inactive); the mix of calls is not that of the screen. Calls come from the whole dose curve; as a rule, active = well fitted inhibition curve with a large enough effect in the signal ratio, with a control signal flat (not every such curve was filed as active); inconclusive = small, poorly fitted or top-dose-only effect, or effect the other way, or a change in a side signal; inactive = flat fitted curve, though single readings scatter; the % refers to the signal ratio. A potency beside an inconclusive call is a rough fit, not a confirmed value.

assay: qHTS Assay for Lipid Storage Modulators in Drosophila S3 Cells; conditions: BODIPY lipid droplet fluorescence, 18-24 h, cells fed with added oleic acid; lipid storage change, negative = inhibition: at 46.1 µM (top of the series) unless noted
Procedure, shortened: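 Drosophila S3 cells got compounds at several concentrations plus oleic acid (400 uM solution). Laser-scanning cytometry with 488 nm excitation read lipid droplets at 500-530 nm and cells at 575-640 nm. Percent activity was relative to 20 uM Triacsin C.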
% is set by controls: 0 for no effect and ±100 for the full control effect; potency is the fitted concentration of half-maximal effect.

SMILES	lipid storage change, negative = inhibition	Potency
O=S(=O)(c1ccc(C(F)(F)F)cc1)N1CCN(CCOc2ccccc2)CC1	inconclusive	
CCOC(=O)N1CCC(NC(=O)c2cc(C(=O)Nc3ccc(OC)c(OC)c3)ccc2CO)CC1	inconclusive: -4.51%	
CCN(CC)S(=O)(=O)c1cc(NS(=O)(=O)c2cccc(Cl)c2)ccc1C		inconclusive: 6.51 µM [falling, single point]
CN(CC(=O)Nc1ccccc1Br)CC(=O)NC(c1ccccc1)c1ccccc1		inconclusive: 3.26 µM [activator, partial curve]
O=S(=O)(c1ccc2c(c1)OCCO2)N1CCN(Cc2ccc3c(c2)OCO3)CC1	inconclusive: -21.2%	
O=C(NCC(=O)N(c1ccc(F)cc1)C(C(=O)NC1CCCCC1)c1ccncc1)c1ccco1 (centres undefined)	inconclusive: 46.5%	
Cc1cc(CSc2ccccc2)ccc1NC(=O)c1ccc(Br)cc1	inconclusive: 8.82%	
COc1ccc(C(=O)N(C)Cc2ccc(C)o2)cc1OC1CCN(C(C)=O)CC1		inconclusive: 29.1 µM [falling, single point]
Cc1ccc(NC(=O)COC(=O)CNC(=O)c2ccc3ccccc3c2)c([N+](=O)[O-])c1	inconclusive: -82.7%	
Cc1ccc(OCC(=O)N/N=C/c2cn[nH]c2-c2ccc(Cl)c(Cl)c2)cc1		inconclusive: 16.4 µM [falling, partial curve]
CCn1nnnc1SCC(=O)c1cc(OC)ccc1OC		inconclusive: 2.91 µM [activator, single point]
Cc1oc(CSCC2CCCO2)cc1C(=O)O (centres undefined)	inconclusive: -80.2%	
COCCCN1C(=O)c2ccccc2C1C(=O)NC1CCCCCC1 (centres undefined)	inconclusive: -49.2% [at 0.0737 µM]	
COc1ccc(C(=O)Nc2nnc(-c3ccc(F)cc3)s2)c(OC)c1	inconclusive: 347%	
COCCCNC(=O)c1ccc(N(C)S(C)(=O)=O)cc1		inconclusive: 0.0326 µM [falling, full curve, poor fit]
CCCNC(=S)NC1CC2CCC(C1)N2Cc1ccccc1 (centres undefined)	inconclusive: 25%	
CC(C)CCN(C(=O)c1ccc(Br)cc1)c1c(N)n(Cc2ccccc2)c(=O)[nH]c1=O		inconclusive: 18.4 µM [activator, single point]
CCN1CCN(c2nc(S(=O)(=O)c3ccc(C)cc3)c(Cl)s2)CC1		inconclusive: 29.1 µM [activator, single point]
COc1ccc(/C(=N/Nc2ncnc3ccccc23)C(=O)O)cc1	inconclusive: -16.6%	
O=C(Nc1ccc(F)cc1)OCCOc1ccc(Br)cc1	inconclusive: -30%	
CNC(=O)/C(C#N)=C/c1cn(CC(=O)NCc2ccco2)c2ccccc12	inconclusive: 10.3%	
O=C(COC(=O)c1cc(Br)ccc1Cl)NC(=O)NCc1ccccc1	inconclusive: -6.73%	
COc1cccc(NC(=O)C(Sc2nnnn2C)c2ccccc2)c1 (centres undefined)	inconclusive: 27.7%	
CC[C@@]12C(=O)N(c3ccc(C)cc3)C(=O)N1[C@H](c1ccc(OC)cc1)[C@@H]1C(=O)N(C(C)(C)C)C(=O)[C@@H]12	inconclusive: 5.53%	
CCCNC(=O)c1onc(CSc2ccc(F)cc2)c1C(=O)NC(C)C	inconclusive: 10.3%	

Reformatted: entries from further up
CCn1nnnc1SCC(=O)c1cc(OC)ccc1OC
  Potency: inconclusive: 2.91 µM [activator, single point]
Cc1oc(CSCC2CCCO2)cc1C(=O)O (centres undefined)
  lipid storage change, negative = inhibition: inconclusive: -80.2%

(continued)

SMILES	lipid storage change, negative = inhibition	Potency
O=[N+]([O-])c1cccc(C2Nc3cccc4cccc(c34)N2)c1	inconclusive: -14.3%	
CCCCC(c1nnnn1Cc1ccco1)N1CCN(c2nc3ccccc3s2)CC1 (centres undefined)	inconclusive: 45.5%	
O=S(=O)(c1cccc(Cn2nnc(-c3ccc(F)cc3)n2)c1)N1CCOCC1		inconclusive: 4.61 µM [falling, single point]
COc1ccc(C(c2c(C)n(C)n(-c3ccccc3)c2=O)c2c(C)n(C)n(-c3ccccc3)c2=O)cc1	inconclusive: -1.11%	
CCOC(=O)C1=C(C)N(CCCC(=O)O)C(=O)NC1c1ccc([N+](=O)[O-])cc1 (centres undefined)	inconclusive: -13.2%	
CCOc1ccc(NC(=O)C/C(C)=N/NC(=O)Cc2ccc(Cl)cc2)cc1	inconclusive: -51%	
CC(C)CCCN1C(Nc2ccccc2)=NC[C@@H]1CC(C)C	inconclusive: -30.2%	
Cc1ccc(S(=O)(=O)NCc2cccnc2)c(C)c1	inconclusive: 47.9%	
FC(F)(F)c1nc(-c2cccs2)ncc1-c1nnnn1-c1ccc(Cl)cc1	inconclusive: -29.7%	
O=C(CN1CCOCC1)Nc1ccc(S(=O)(=O)N2CCCCCC2)cc1	inconclusive: -33%	
O=c1oc2ccccc2cc1-c1ccccc1	inconclusive: -3.86%	
O=C(NCC(c1cccnc1)N1CCN(c2ccccc2)CC1)OCc1ccccc1 (centres undefined)	inconclusive: -13.6%	
CCCCn1c(N)c(N(Cc2ccccc2OC)C(=O)C(C)C)c(=O)[nH]c1=O	inconclusive: -22.7%	
Cc1ccccc1N1C(=O)C(Oc2ccc(Cl)cc2)C1CNCCCOC(C)C (centres undefined)		active: 23.1 µM
CC(C)[C@H](NC(=O)OCc1ccccc1)C(=O)OCC(=O)NC1CCCCC1		inconclusive: 0.0116 µM [rising, full curve, poor fit]
Cc1ccc(OCCSc2nc3ncnc(N)c3[nH]2)cc1		inconclusive: 3.66 µM [activator, single point]
O=C(COc1cccc2cccnc12)Nc1nccs1	inconclusive: 25.3%	
CSc1ncccc1C(=O)OCC(=O)C(C)(C)C	inconclusive: 21.2%	
O=C(CCC1CCCC1)NCCS(=O)(=O)N1CCN(c2ccccc2F)CC1	inconclusive: -35.7% [at 0.0737 µM]	
Cc1ccc(O)c(N=Nc2ccc(S(=O)(=O)N3CCCC3)cc2)c1	inconclusive: -32%	
O=C(COc1ccccc1F)N1CCCc2ccccc21	inconclusive: -9.62%	
CCCn1c(=NC(=O)c2ccco2)c(C(=O)OCC)cc2c(=O)n3ccccc3nc21		inconclusive: 9.2 µM [activator, partial curve]
CC(C)Sc1nc2c(c(=O)[nH]c(=O)n2C)n1Cc1ccc(Cl)cc1	inconclusive: 13.4%	
CCOc1ccc(-c2[nH]ncc2-c2ccccc2)c(O)c1	inconclusive: -100%	
